In the supplement of paper PMC12067093, “Discovery and optimisation of a covalent ligand for TRIM25 and its application to targeted protein ubiquitination” (Chemical Science, 2025):
The list shows a part of the results.

Sequences of proteins named here, by UniProt entry; tags and fusion partners are left off. A change or cut given only in a name is not applied to a line headed by its entry.
UniProt Q99698: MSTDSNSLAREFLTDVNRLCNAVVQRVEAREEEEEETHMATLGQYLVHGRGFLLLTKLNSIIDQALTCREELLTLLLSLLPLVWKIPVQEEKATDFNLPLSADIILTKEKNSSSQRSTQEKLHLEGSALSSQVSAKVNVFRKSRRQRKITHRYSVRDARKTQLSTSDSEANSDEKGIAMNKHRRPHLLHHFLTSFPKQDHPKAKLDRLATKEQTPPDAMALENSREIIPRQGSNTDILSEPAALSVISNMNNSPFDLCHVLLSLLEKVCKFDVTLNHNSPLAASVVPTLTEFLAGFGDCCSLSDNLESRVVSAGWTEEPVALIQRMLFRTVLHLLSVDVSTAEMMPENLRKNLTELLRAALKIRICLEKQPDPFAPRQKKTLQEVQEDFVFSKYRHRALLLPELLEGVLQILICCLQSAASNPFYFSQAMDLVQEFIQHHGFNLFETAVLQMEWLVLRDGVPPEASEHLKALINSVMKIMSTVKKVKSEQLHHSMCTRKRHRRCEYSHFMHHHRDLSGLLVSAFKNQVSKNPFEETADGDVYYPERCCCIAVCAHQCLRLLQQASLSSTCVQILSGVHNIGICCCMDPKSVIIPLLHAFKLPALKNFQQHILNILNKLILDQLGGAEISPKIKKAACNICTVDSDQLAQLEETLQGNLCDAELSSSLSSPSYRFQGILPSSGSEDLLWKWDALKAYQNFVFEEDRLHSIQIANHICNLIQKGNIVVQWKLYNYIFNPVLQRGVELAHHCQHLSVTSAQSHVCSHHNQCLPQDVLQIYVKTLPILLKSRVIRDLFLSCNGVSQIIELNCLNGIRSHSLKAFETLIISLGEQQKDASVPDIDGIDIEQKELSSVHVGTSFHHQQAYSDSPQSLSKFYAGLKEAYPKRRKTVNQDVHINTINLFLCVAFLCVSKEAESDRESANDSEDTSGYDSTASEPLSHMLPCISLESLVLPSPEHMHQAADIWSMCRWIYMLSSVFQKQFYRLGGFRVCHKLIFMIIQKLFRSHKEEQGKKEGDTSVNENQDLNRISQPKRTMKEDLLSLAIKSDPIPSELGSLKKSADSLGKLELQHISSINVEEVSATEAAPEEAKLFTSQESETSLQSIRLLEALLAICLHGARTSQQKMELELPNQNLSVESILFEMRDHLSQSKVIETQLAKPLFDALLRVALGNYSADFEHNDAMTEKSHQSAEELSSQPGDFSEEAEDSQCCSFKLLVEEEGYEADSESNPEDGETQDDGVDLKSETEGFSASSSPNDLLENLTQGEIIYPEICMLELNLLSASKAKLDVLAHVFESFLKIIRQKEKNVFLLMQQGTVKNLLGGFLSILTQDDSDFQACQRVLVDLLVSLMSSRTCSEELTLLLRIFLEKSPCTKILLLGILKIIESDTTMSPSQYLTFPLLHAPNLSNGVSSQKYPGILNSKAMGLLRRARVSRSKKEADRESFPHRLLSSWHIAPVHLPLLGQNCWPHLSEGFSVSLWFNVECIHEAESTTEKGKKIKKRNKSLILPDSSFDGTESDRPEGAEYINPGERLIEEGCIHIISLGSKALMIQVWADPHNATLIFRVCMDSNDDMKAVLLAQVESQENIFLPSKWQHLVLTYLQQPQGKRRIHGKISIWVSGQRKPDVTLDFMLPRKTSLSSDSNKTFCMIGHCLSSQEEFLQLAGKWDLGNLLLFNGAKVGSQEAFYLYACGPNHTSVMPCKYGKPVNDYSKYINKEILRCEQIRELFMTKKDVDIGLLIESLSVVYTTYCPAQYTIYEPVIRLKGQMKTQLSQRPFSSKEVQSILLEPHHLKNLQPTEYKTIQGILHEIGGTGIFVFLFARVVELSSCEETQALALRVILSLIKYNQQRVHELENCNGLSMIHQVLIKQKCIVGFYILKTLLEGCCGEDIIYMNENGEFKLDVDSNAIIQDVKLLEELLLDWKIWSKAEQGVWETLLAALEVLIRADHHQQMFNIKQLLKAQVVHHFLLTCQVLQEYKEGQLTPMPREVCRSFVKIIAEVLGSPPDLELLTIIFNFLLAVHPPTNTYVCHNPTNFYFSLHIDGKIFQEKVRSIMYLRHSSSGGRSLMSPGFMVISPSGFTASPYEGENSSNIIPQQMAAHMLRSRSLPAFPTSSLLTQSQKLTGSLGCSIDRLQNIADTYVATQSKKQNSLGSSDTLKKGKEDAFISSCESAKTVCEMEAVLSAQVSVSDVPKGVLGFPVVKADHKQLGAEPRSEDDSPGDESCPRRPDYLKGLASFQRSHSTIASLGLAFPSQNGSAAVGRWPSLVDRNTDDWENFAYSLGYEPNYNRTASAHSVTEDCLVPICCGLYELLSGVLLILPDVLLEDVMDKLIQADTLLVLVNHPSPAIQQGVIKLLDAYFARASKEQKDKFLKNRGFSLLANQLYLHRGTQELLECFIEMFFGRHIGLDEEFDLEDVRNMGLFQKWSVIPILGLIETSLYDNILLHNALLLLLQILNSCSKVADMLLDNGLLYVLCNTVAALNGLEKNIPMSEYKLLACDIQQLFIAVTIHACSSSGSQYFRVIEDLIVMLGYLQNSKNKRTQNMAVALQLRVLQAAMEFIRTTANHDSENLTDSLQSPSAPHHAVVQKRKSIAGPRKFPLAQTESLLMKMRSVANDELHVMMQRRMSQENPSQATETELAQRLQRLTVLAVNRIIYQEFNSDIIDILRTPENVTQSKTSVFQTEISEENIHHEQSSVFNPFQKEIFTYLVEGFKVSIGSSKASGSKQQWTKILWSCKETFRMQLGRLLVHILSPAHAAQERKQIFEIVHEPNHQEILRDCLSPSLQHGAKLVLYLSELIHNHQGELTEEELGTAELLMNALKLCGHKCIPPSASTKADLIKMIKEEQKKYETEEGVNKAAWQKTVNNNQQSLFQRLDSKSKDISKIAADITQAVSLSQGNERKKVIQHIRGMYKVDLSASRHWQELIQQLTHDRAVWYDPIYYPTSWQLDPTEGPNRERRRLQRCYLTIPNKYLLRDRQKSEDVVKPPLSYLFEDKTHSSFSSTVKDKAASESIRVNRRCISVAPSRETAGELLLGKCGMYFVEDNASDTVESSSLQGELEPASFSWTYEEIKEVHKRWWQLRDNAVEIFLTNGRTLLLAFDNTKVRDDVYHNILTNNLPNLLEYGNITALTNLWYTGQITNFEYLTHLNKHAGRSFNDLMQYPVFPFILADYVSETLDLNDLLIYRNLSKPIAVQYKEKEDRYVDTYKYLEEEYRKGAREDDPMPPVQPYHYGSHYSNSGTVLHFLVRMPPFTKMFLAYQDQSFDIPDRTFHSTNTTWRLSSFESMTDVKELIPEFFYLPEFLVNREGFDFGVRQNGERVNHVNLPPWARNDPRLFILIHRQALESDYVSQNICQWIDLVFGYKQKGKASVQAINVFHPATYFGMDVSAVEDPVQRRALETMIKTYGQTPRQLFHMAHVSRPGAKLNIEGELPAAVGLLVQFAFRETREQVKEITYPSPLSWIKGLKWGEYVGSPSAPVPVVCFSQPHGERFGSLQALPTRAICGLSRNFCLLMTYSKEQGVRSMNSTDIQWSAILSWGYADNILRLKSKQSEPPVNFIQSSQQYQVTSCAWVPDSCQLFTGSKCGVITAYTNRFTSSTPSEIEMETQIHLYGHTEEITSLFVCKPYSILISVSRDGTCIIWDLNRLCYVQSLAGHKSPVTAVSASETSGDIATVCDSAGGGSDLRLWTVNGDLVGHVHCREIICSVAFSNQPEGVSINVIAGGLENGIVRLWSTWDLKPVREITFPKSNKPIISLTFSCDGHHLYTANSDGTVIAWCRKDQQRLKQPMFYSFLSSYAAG
UniProt P28482, whole entry, looked up: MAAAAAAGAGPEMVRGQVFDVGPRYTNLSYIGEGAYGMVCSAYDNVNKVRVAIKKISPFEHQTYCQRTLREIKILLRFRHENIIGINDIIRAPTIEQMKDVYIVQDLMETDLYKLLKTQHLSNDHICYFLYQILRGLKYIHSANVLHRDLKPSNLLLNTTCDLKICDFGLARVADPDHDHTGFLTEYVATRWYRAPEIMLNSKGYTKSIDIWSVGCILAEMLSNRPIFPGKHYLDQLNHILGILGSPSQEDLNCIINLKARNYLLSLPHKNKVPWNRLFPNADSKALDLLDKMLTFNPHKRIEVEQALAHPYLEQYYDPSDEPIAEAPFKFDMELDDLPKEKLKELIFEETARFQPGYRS
UniProt Q9UBB5, whole entry, looked up: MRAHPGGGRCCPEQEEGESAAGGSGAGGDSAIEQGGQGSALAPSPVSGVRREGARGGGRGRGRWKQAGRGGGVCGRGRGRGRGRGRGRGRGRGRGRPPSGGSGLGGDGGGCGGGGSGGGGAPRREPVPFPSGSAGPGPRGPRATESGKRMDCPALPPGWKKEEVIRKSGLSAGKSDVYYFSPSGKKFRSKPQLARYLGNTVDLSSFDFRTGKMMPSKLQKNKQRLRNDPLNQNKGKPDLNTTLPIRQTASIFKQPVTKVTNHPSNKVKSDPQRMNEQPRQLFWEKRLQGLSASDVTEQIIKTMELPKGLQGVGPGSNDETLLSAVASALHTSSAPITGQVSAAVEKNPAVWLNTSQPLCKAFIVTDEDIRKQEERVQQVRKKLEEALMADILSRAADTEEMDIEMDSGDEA
UniProt P43243: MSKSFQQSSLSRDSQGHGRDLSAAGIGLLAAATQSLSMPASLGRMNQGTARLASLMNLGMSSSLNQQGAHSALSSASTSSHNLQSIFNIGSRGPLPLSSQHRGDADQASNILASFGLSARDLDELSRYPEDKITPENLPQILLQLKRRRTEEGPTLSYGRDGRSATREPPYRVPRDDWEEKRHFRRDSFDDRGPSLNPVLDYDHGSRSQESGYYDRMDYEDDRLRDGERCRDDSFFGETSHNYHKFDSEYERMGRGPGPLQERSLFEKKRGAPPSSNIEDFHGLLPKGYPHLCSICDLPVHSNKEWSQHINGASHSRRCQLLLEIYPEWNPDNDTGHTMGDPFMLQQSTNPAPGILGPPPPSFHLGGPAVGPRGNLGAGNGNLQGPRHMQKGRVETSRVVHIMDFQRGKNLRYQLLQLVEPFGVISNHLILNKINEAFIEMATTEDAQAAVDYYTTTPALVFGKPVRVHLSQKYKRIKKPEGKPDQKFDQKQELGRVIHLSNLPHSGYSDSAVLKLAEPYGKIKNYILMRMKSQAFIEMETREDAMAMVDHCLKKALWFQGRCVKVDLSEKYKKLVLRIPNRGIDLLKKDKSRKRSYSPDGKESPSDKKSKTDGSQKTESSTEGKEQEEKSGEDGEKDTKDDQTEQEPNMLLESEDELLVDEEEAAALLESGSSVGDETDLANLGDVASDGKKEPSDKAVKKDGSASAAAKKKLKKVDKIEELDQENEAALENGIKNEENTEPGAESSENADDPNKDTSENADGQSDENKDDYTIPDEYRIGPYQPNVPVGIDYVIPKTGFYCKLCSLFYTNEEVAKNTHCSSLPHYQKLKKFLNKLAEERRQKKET
UniProt P27816: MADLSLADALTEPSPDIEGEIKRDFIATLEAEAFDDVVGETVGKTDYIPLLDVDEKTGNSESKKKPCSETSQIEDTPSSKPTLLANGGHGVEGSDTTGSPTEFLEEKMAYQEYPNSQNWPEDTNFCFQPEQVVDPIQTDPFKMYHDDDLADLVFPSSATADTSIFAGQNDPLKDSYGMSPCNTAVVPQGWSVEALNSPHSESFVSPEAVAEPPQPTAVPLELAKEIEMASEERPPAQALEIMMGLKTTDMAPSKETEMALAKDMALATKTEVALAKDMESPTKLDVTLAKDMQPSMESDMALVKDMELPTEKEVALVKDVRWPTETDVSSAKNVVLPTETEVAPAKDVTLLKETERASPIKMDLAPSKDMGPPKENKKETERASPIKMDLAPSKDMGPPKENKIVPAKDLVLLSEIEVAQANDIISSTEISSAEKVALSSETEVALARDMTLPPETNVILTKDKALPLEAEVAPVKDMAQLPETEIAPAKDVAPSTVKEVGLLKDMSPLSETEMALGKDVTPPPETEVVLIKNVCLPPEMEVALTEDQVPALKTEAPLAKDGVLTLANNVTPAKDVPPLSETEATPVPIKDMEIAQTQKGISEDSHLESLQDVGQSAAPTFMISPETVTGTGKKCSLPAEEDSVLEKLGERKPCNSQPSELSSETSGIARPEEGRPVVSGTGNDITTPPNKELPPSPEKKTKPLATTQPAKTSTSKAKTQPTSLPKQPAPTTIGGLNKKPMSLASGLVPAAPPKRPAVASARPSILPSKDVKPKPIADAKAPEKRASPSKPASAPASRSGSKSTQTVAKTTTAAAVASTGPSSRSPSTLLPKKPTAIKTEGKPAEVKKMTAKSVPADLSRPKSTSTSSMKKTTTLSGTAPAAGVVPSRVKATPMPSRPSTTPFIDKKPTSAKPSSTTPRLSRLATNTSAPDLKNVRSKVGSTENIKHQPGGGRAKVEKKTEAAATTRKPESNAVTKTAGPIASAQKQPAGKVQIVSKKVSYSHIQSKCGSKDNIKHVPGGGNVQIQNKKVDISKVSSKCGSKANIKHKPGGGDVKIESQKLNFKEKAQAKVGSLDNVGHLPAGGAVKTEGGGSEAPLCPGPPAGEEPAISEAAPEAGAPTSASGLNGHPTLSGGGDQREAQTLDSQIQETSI

Compound: Cc1cc(ccc1-c1ccccc1)C(=O)N1CCCN(CC1)C(=O)CCl [compound 10]
Test: probe-labelled cysteine peptide fold change vs DMSO (competition) (log2 fold change); higher = less target engagement (more negative = stronger competition)
Details: THP-1, incubation time: 4 h
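Note: competitive profiling in live THP-1 cells: cysteine peptides tagged with an iodoacetamide desthiobiotin (IA-DTB) probe, intensity after compound treatment relative to DMSO-treated cells.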

LYST_Q99698_1855_VHELENCNGLSMIHQVLIK (UniProt Q99698)
probe-labelled cysteine peptide fold change (10 µM): -0.138
probe-labelled cysteine peptide fold change (50 µM): 0.0164

MAT2B_Q9NZL9_17_ELSIHFVPGSCR (UniProt Q9NZL9)
probe-labelled cysteine peptide fold change (10 µM): -0.0851
probe-labelled cysteine peptide fold change (50 µM): -0.177

MADD_Q8WXG6_1521_ELYYCVK (UniProt Q8WXG6)
probe-labelled cysteine peptide fold change (10 µM): 0.00475
probe-labelled cysteine peptide fold change (50 µM): -0.341

LYZ_P61626_48_GISLANWMCLAK (UniProt P61626)
probe-labelled cysteine peptide fold change (10 µM): -0.195
probe-labelled cysteine peptide fold change (50 µM): -0.123

MAPK1_P28482_127_TQHLSNDHICYFLYQILR (UniProt P28482)
probe-labelled cysteine peptide fold change (10 µM): 0.145
probe-labelled cysteine peptide fold change (50 µM): 0.39

LYPLA2_O95372_56_YICPHAPR (UniProt O95372)
probe-labelled cysteine peptide fold change (10 µM): 0.146
probe-labelled cysteine peptide fold change (50 µM): -0.11

MAP4K3_Q8IVH8_509_DGSLCQQQNEHR (UniProt Q8IVH8)
probe-labelled cysteine peptide fold change (10 µM): -0.137
probe-labelled cysteine peptide fold change (50 µM): -0.716

MBD2_Q9UBB5_152_MDCPALPPGWK (UniProt Q9UBB5)
probe-labelled cysteine peptide fold change (10 µM): 0.149
probe-labelled cysteine peptide fold change (50 µM): -0.0385

MATR3_P43243_552_EDAMAMVDHCLKK (UniProt P43243)
probe-labelled cysteine peptide fold change (10 µM): 0.0281
probe-labelled cysteine peptide fold change (50 µM): -0.274

MAEA_Q7L5Y9_195_SCLEFSLR (UniProt Q7L5Y9)
probe-labelled cysteine peptide fold change (10 µM): 0.0228
probe-labelled cysteine peptide fold change (50 µM): -0.369

MACROD1_Q9BQ69_246_SCYLSSLDLLLEHR (UniProt Q9BQ69)
probe-labelled cysteine peptide fold change (10 µM): 0.141
probe-labelled cysteine peptide fold change (50 µM): -0.163

LYZ_P61626_83_YWCNDGK (UniProt P61626)
probe-labelled cysteine peptide fold change (10 µM): 0.00228
probe-labelled cysteine peptide fold change (50 µM): -0.21

MAP4_P27816_635_CSLPAEEDSVLEK (UniProt P27816)
probe-labelled cysteine peptide fold change (10 µM): -0.14
probe-labelled cysteine peptide fold change (50 µM): -0.133

LYST_Q99698_3586_CGVITAYTNR (UniProt Q99698)
probe-labelled cysteine peptide fold change (10 µM): 0.0559
probe-labelled cysteine peptide fold change (50 µM): 0.0755

MCCC2_Q9HCC0_267_AATGEEVSAEDLGGADLHCR (UniProt Q9HCC0)
probe-labelled cysteine peptide fold change (10 µM): -0.421
probe-labelled cysteine peptide fold change (50 µM): -1.1

MAP4_P27816-4_243_LSFCEDQNAQDR (UniProt P27816)
probe-labelled cysteine peptide fold change (10 µM): -0.0898
probe-labelled cysteine peptide fold change (50 µM): -0.244

MARS_P56192_333_ALEEGLTPQEICDK (UniProt P56192)
probe-labelled cysteine peptide fold change (10 µM): 0.0983
probe-labelled cysteine peptide fold change (50 µM): 0.101

MARC1_Q5VT66_79_GVPVSEAECTAMGLR (UniProt Q5VT66)
probe-labelled cysteine peptide fold change (10 µM): 0.0332
probe-labelled cysteine peptide fold change (50 µM): -0.213

MAPK7_Q13164_359_YHDPDDEPDCAPPFDFAFDR (UniProt Q13164)
probe-labelled cysteine peptide fold change (10 µM): -0.303
probe-labelled cysteine peptide fold change (50 µM): 0.169

MAP4K2_Q12851_302_ASDPHLGTPSPEDCELETYDMFPDTIHSR (UniProt Q12851)
probe-labelled cysteine peptide fold change (10 µM): -0.182
probe-labelled cysteine peptide fold change (50 µM): 0.108

MAP3K4_Q9Y6R4_1581_DFLSHCLESDPK (UniProt Q9Y6R4)
probe-labelled cysteine peptide fold change (10 µM): 0.0195
probe-labelled cysteine peptide fold change (50 µM): -0.0136

MATR3_P43243_552_EDAMAMVDHCLK (UniProt P43243)
probe-labelled cysteine peptide fold change (10 µM): 0.0807
probe-labelled cysteine peptide fold change (50 µM): 0.337

MCCC1_Q96RQ3_190_SIMAAAGVPVVEGYHGEDQSDQCLK (UniProt Q96RQ3)
probe-labelled cysteine peptide fold change (10 µM): -0.0351
probe-labelled cysteine peptide fold change (50 µM): 0.0619

MAP4K1_Q92918_334+335_SSSLGIPDADCCR (UniProt Q92918)
probe-labelled cysteine peptide fold change (10 µM): -0.26
probe-labelled cysteine peptide fold change (50 µM): -1.18

MAP3K8_P41279_398_CQSLDSALLER (UniProt P41279)
probe-labelled cysteine peptide fold change (10 µM): -0.276
probe-labelled cysteine peptide fold change (50 µM): -0.883

MACF1_Q9UPN3_4581_QLEESASHLACFQAAESQLRPWLMEK (UniProt Q9UPN3)
probe-labelled cysteine peptide fold change (10 µM): -0.037
probe-labelled cysteine peptide fold change (50 µM): -0.201

LYST_Q99698_3701_LWTVNGDLVGHVHCR (UniProt Q99698)
probe-labelled cysteine peptide fold change (10 µM): 0.112
probe-labelled cysteine peptide fold change (50 µM): 0.224

MAPK1_P28482_254_HYLDQLNHILGILGSPSQEDLNCIINLK (UniProt P28482)
probe-labelled cysteine peptide fold change (10 µM): -0.204
probe-labelled cysteine peptide fold change (50 µM): 0.511

LYST_Q99698_2223_SEDDSPGDESCPR (UniProt Q99698)
probe-labelled cysteine peptide fold change (10 µM): -0.367
probe-labelled cysteine peptide fold change (50 µM): -1.41

MBD4_O95243_296_TVCISDAGACGETLSVTSEENSLVK (UniProt O95243)
probe-labelled cysteine peptide fold change (10 µM): -0.0617
probe-labelled cysteine peptide fold change (50 µM): 0.132

MAT2A_P31153_34_ICDQISDAVLDAHLQQDPDAK (UniProt P31153)
probe-labelled cysteine peptide fold change (10 µM): -0.355
probe-labelled cysteine peptide fold change (50 µM): 0.000577

LYRM7_Q5U5X0_97_KDLLVENVPYCDAPTQK (UniProt Q5U5X0)
probe-labelled cysteine peptide fold change (10 µM): -0.324
probe-labelled cysteine peptide fold change (50 µM): -0.539

MAD2L1_Q13257_106_WQFDIECDK (UniProt Q13257)
probe-labelled cysteine peptide fold change (10 µM): -0.0343
probe-labelled cysteine peptide fold change (50 µM): 0.171

MAGI3_Q5TCQ9_1279_AGSGQDQCR (UniProt Q5TCQ9)
probe-labelled cysteine peptide fold change (10 µM): -0.0196
probe-labelled cysteine peptide fold change (50 µM): 0.446

MAP7D1_Q3KQU3-4_329_DQAVPVCPR (UniProt Q3KQU3)
probe-labelled cysteine peptide fold change (10 µM): -0.267
probe-labelled cysteine peptide fold change (50 µM): -0.146

MBTD1_Q05BQ5_78_FCSVSCSR (UniProt Q05BQ5)
probe-labelled cysteine peptide fold change (10 µM): -0.26
probe-labelled cysteine peptide fold change (50 µM): -0.423

MAVS_Q7Z434_133_TSDRPPDPLEPPSLPAERPGPPTPAAAHSIPYNSCR (UniProt Q7Z434)
probe-labelled cysteine peptide fold change (10 µM): -0.0559
probe-labelled cysteine peptide fold change (50 µM): -0.222

MAVS_Q7Z434_33_NFSNFCNVDVVEILPYLPCLTAR (UniProt Q7Z434)
probe-labelled cysteine peptide fold change (10 µM): 0.17
probe-labelled cysteine peptide fold change (50 µM): 0.185

MBOAT7_Q96N66_304_NIDCYSTDFCVR (UniProt Q96N66)
probe-labelled cysteine peptide fold change (10 µM): 0.139
probe-labelled cysteine peptide fold change (50 µM): 0.0315
